The values below come from PMC5037330, “Large-Scale Movements of IF3 and tRNA during Bacterial Translation Initiation” (Cell, 2016).

The target in this test is T1, IF1 Thermus thermophilus (Thermus thermophilus) (UniProt Q5SHR1).
T1 sequence: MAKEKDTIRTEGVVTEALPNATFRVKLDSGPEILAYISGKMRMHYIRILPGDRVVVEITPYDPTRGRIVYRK
The test can be described thus: cryo-EM structure; Sample 2 (with IF2): 30S:IF1:IF2:IF3:tRNA:mRNA 1:3:3:3:3:3, complex at 100 nM, IF2 preincubated with 0.2 mM GDPCP, 10 mM MES pH 6.5, 5 mM MgOAc, 50 mM KCl, 10 mM NH4Cl, 6 mM BME; put on grids without further purification; classes PIC-I to PIC-III; both purified.

No constants are given. Whether binding was seen depends on the method and setting. Some binding calls cover weakened binding; strength is not graded here.

B1: IF2 Thermus thermophilus (protein, UniProt P48515 1-571)
chain: MAKVRIYQLAKELGMETQELLELLDQMGVAYKSHASTLEEKDAEAVRELVKEQRGLQEKLAEEERRKSLPRRPPVVVIMGHVDHGKTTLLDYLRKSRIAEKEAGGITQHVGAFEVKTPQGTVVFIDTPGHEAFTTIRQRGAKVADIAVIVIAADDGIMPQTEEAIAHAKAAGAKLIFAINKIDLPQADPEKVKRQLMERGFVPEEYGGDAIVIPISAKTGQGVQDLLEMILLLAELEDYRADPNAEPRGVILESKLDKQAGIIANMLVQEGTFRVGDYVVAGEAYGRIRAMMDADGNQRKEAGPGSAVQVLGFQELPHAGDVVEWVPDLEAAKEIAEERKEERKAREEEEKARRPRTMAELLRAMQEEGRKELNLILRADTQGSLEAIQHILARESTEDVKINILLAQVGAPTESDVLLAQTANAAILAFGVNPPGSVKKKAEEKGVLLKTFRIIYDLVDEVRNMVKGQREPQYKEEVLGQAEVRAIFRLPTGKQVAGCMVTQGRIPRNAEVRVLRDGQVIWQGRIASLKRFKEDVREVAQGYECGIGLDGFDDFREGDVIEAFQMVEVPA
In the case of B1, the binding entry was “binds”.
